Results taken from patent US7662644B2 (priority 2000, dated 2010).

Experiment: general procedure: Boc solid-phase peptide synthesis; TAMPAL thioester-linker resin; -OCH2-Pam or MBHA resins; HBTU (in situ neutralization)
Details: for step yield: coupling step

TMR-LY-(SAOD)-AGCEYRIDRVRLFVDKLDNIAQVPRVGAAHHHHHH
conjugation yield (conjugation step): approximately 50%
difficulty met (conjugation step): it was difficult to achieve high yields

LY-(SAOD)-AGCRANK-NH2
step yield: ˜85%

TMR-LY-(SAOD)-AGCRANK-NH2
conjugation yield (conjugation step, HPLC integration (labeling efficiency)): greater that 95%

LY-(SAOD)-AGCEYRIDRVRLFVDKLDNIAQVPRVGAAHHHHHH
step yield: 58%

SAOD-KKKEKERPEISLPSDFEHTIH-VGFDACTGEFTGMPEQWARLLQT
step yield: 70%
